Measured values: PubChem BioAssay AID504375 (National Center for Advancing Translational Sciences (NCATS), 2011)
Out of some 1,600 compounds screened, about 25 (2%) were called active. Inconclusive results (about 7%) are left out. Calls follow the shape of the dose curve; as a rule, active = well fitted inhibition curve with a large enough effect; inconclusive = small, poorly fitted or top-dose-only effect, or effect the other way; inactive = no such curve, though single readings can be large or run the other way. This is one part of the list.

The chains behind the UniProt entries cited, without tags or fusion partners.
UniProt Q01196, whole entry, looked up: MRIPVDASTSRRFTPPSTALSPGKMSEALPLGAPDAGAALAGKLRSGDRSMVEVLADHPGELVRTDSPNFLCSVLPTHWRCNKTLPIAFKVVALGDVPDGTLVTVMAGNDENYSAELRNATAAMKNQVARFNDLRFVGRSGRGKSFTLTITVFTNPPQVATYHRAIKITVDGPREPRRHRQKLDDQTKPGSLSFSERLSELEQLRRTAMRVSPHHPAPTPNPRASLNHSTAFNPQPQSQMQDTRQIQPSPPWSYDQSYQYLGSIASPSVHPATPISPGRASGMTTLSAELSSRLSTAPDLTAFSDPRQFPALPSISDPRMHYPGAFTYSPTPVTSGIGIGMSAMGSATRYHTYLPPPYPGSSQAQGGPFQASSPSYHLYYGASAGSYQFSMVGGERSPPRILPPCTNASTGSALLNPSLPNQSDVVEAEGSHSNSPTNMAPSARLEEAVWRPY
UniProt Q13951, whole entry, looked up: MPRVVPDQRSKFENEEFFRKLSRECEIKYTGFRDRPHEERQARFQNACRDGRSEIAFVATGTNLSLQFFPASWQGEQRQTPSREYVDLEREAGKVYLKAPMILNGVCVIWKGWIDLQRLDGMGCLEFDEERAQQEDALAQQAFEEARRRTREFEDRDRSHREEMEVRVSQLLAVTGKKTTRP

molecular target: Runt-related transcription factor 1 (Homo sapiens) + Core-binding factor subunit beta (Homo sapiens) (UniProt Q01196+Q13951); assay: qHTS Assay for Compounds Blocking the Interaction Between CBF-beta and RUNX1 for the Treatment of Acute Myeloid Leukemia: Hit Validation with Orthogonal Assay; conditions: CBFbeta-RUNX1 binding orthogonal assay, biochemical; series mostly up to 41 µM; activity change, negative = inhibition: at the top concentration
From the text: NIH Chemical Genomics Center [NCGC]
NIH Molecular Libraries Probe Production centers Network [MLPCN]
Assay Submitter (PI): Paul Liu
Core Binding Factor (CBF) abnormalities are associated with 20-25% of all acute myeloid leukemias (AML), of which 5-10% are further sub classified as acute myelomonocytic leukemia with eosinophilia, also known as M4Eo in the FAB classification scheme. This subtype of leukemia is usually associated with chromosome 16 inversion (p13:q22). Chromosome 16 inversion results in formation of the fusion oncogene CBFB-MYH11, which encodes the fusion protein CBF-beta-SMMHC.
It has been hypothesized that the interference of CBF-beta and RUNX1 binding could have therapeutic implications for patients with CBF mediated leukemias. We developed a CBF-beta and RUNX1 binding assay in AlphaScreenTM format and optimized it for high throughput screening to search for inhibitors. The goal of this project is to screen MLPCN's compound collection (MLSMR) for identifying the inhibitors of the interaction between CBF-beta and RUNX1 proteins as research probes. If these probes work well in the animal models, the ultimate goal of this project is to development a new drug treatment for this disease.
This assay can not be used to assess how apparent inhibitors interfere with protein binding, and whether inhibitors specifically bind to either protein. Disruption of this protein-protein interaction, through any mechanism, is the intended target activity.
The present data set was run to confirm the activity of hits from the primary screen using an orthogonal assay technology for measuring protein-protein interaction disruption.
A TR-FRET (time resolved fluorescence resonance energy transfer) assay was performed using the same assay buffer, protein concentrations and incubation times as described previously in the AlphaScreen assay, except that terbium (Tb+) labeled anti-his-antibody and XL665 linked streptavidin were used to capture the binding signal. The Tb+ labeled anti-his-antibody captures His(6)-CBF and XL665 linked streptavidin binds to biotin-RUNX1. The binding of RUNX1 to CBFbrings Tb+ and XL665 to proximity resulting in a TR-FRET signal. Briefly, in a white 384-well plate, 10 µl/well of mixture of biotin-RUNX1 and His(6)-CBFwere incubated with 10 µl/well buffer (positive control) or 10 µl/well compounds (negative control) for 20 min followed by an addition of 10 µl/well of Tb+ labeled anti-his(6)-antibody and XL665 linked streptavidin. After 90 min of incubation in the dark, the assay plate was measured in the Envision plate reader using TR-FRET detection mode. For the 1536-well plate format, 3 µl/well mixture of biotin-RUNX1 and His(6)-CBF (30 nM per protein) was incubated with 23 nl/well compound (dissolved in 100% DMSO) or the equivalent DMSO concentration (positive control) for 30 min followed by the addition of 1 µl/well of 0.44 ng Tb+ labeled anti-his(6)-antibody and 5 nM streptavodin-XL665. After 90 min of incubation, the assay plate was measured in the Envision plate reader.
The TR-FRET assay for detecting interaction between HIV-I Tat and […] was similarly performed with the recombinant full-length HIV-I Tat CLADE B and HIV-I Tat Biotin conjugated proteins supplied by Diatheva (Fano, Italy). Briefly, the His-CBF and Biotin-RUNX1 complex at a working concentration of 83.3 nM per protein were pre-incubated in assay buffer for 10 minutes on ice. Then HIV-I Tat or unlabeled CBF were added to reach final concentrations (Supplementary Figure 4b) and incubated for 5 minutes. Finally anti-His antibody and streptavidin-XL665 at a final concentration of 2.2 ng and 5 nM, respectively, were added to the plate, which was incubated for 1 hr prior to reading on the PerkinElmer Envision plate reader.
Keywords: MLSMR, MLPCN, NIH Roadmap, qHTS, NCGC, Core binding factor, CBF, CBF-beta, Acute myeloid leukemia
% is scaled to controls: 0 for no effect and ±100 for the full control effect; potency is read from the fitted curve at half-maximal effect.

Activity change, negative = inhibition, inactive:
O=c1c2ccccc2c(-c2ccccc2)nn1-c1ccccc1 -4.88%, O=C(CN1CCCC1)Nc1c(C(=O)C2CC2)oc2ccccc12 4.04%, CCc1c(C)nc2c(-c3ccccc3)c(C)nn2c1Nc1ccc(NC(C)=O)cc1 12%, COc1ccc(-n2c(=S)[nH]c3[nH]ncc3c2=O)cc1 9.68%, CC1=NN(c2nc3ccccc3s2)C(O)(C(F)(F)F)C1 (configuration not stated) 8.33%, Cc1cc(C(=O)N/N=C/c2c(C)nn(-c3ccccc3)c2C)n[nH]1 -1.38%, N#Cc1ccc(S(=O)(=O)N2CCCN(c3ccc(C(F)(F)F)cn3)CC2)cc1 -4.62%, CCOc1cccc2cc(C(N)=O)c(=N)oc12 28.4%, O=C(CSc1n[nH]c(=O)[nH]c1=O)NCC1CCCCC1 -0.514%, O=S(=O)(c1cccc(F)c1)N1CCCN(c2ccc(C(F)(F)F)cn2)CC1 -7.51%, Cc1nc(N2CCOCC2)nc(Oc2ccccc2F)c1[N+](=O)[O-] -2.96%, O=c1[nH]nc(N2CCOCC2)c(=O)[nH]1 9.08%, CCN(CC)C(=O)CSc1nnc2nnc3cc(OC)ccc3n12 85.2%, CCc1cccc(C)c1NC(=O)N(C)C1CCCCC1 -7.29%, Cc1cccc(C(=O)N/C(=C\c2ccc(C)o2)C(=O)O)c1 5.51%, O=C(Nc1ccc(Cl)cc1)Nc1ccc(C(=O)N2CCOCC2)cc1 3.72%, Cc1nn(Cc2ccccc2)c(C)c1/C=N/NC(=O)c1ccncc1 2.97%, COc1ccccc1/C=C/C=N/n1c(-c2ccccn2)n[nH]c1=S 11.2%, O=S(=O)(Nc1nc(SCc2ccc(Cl)cc2)n[nH]1)c1ccccc1 -14.4%, CC(=O)Nc1cccc(S(N)(=O)=O)c1C 1.17%, CN1C(=O)C(CC(=O)NCCc2ccccc2)N(NC(=O)c2ccc(Cl)cc2)C1=S (configuration not stated) -11.6%, CCOC(=O)c1cnn(-c2ccc(NS(=O)(=O)c3ccc(Cl)cc3)cc2)c1C(F)(F)F 0.0612%, CCN(CC)c1ccc(/C=N/N2CCN(Cc3ccc(Cl)cc3)CC2)c(O)c1 4.25%, Fc1ccc([C@H]2CCNCC2COc2ccc3c(c2)OCO3)cc1 (some centres not stated) -5.24% [at 82.4 µM], Cc1nc(C)c(-c2ccnc(/N=C/NO)n2)s1 3.72%, Cn1cnc(S(=O)(=O)Nc2ccc(OC(F)F)cc2)c1 8.49%, Cc1oc(S(=O)(=O)N2CCCC2)cc1C(=O)Nc1ccccc1 -1.84%, Cc1ccc(-c2nn[nH]n2)cc1Cl 4.17%, CCO/C=C1\SC(=S)N(c2ccc(Cl)cc2)C1=O 0.783%, CC(C)(C)OC(=O)N1Cc2cc3ccccc3nc2C1CO (configuration not stated) 9.96%, CN(C)c1ccc(N2C(=O)CC(c3ccccc3)CC2=O)cc1 17.5%, Cc1cc(C)n2nc(N)c(N=Nc3ccccc3)c2n1 16.4%, CCCc1c(C(=O)O)cnn1-c1ccc(Cl)cc1 3.28%, Cc1nn(-c2ccccc2)c(NC(=O)c2cccs2)c(-c2ccccc2Cl)c1=O 8.62%, CC(=O)Oc1cc2c3c(c1)/C(=C1/SC(=S)NC1=O)C(=O)N3C(C)(C)C=C2C 14.8%, CC(C)NNC(=O)c1ccncc1 28.1%, Cc1nc(Nc2ccc(F)cc2)nc(Nc2ccc(F)cc2)c1[N+](=O)[O-] -11.5%, COc1ccc(CCNC(=S)NCCc2ccc(OC)c(OC)c2)cc1OC -0.967%, C=CCn1c(SCc2ccc(F)cc2)nnc1-c1sc2nc(C)cc(C)c2c1N 6.09%, CCOC(=O)c1cn[nH]c1NC(=S)Nc1ccc(Cl)cc1 13.8%, COc1ccc2c(C)cc(C)nc2n1 11.8%, Cc1nn2c(N3CCN(CCO)CC3)c3c(nc2c1-c1ccccc1)CCCC3 7.13%, COc1ccc2[nH]c(=O)c(CN(C(=O)c3cccnc3)c3ccc(C)cc3C)cc2c1 -5.17%, Cc1cccc(NC(=S)N(CCN(C)C)C(C)c2ccccn2)c1 (configuration not stated) 3.34% [at 22.1 µM], CC(C)(C)c1cc(C(=O)NN)n(Cc2ccc(Cl)cc2Cl)n1 1.84%, Cn1nc2sc3ccccc3n2c(=O)c1=O -8.73%, Cc1ccnn1CC(=O)N/N=C/c1c[nH]c2ccccc12 21.8%, COc1ccccc1C(=O)N1CCC(N2CCN(c3ccccc3)CC2)CC1 -6.19%, C=CCNC(=S)NCC -15.6%, O=C(c1ccccc1)c1ccc(Sc2ccc([N+](=O)[O-])cc2)cc1 -2.88%, CCCCNC(=O)Nc1nnc(C(C)(C)C)s1 -12%, C[C@H](N)C(=O)OCc1ccc([N+](=O)[O-])cc1 12.9%, COc1ccc(C2Sc3ccccc3N(CCN(C)C)C(=O)C2OC(C)=O)cc1 (configuration not stated) -5.56%, Cc1ccc(-n2c(-c3ccc(Cl)cc3)c[n+]3c2CCC3)cc1 6.19%, O=C(O)/C=C/C(=O)Nc1ccc(Cl)cc1C(=O)c1ccccc1 5.96%, COc1ccc(NC(=O)Oc2cc(C)ccc2C(C)C)cc1 0.526%

Potency, active:
COc1cccc2c1NC(C(=O)O)C1CC=CC21 (configuration not stated) 7.94 µM
